According to the supplement of paper PMC12823440, “Inhibitors supercharge kinase turnover through native proteolytic circuits” (Nature, 2025):
This is one part of the list. The calls rarely recur for the same compound in another form.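 In K562 cells expressing nanoluciferase-fused kinases, luminescence was recorded at 4 h intervals between 2 and 18 h, normalized as percent of control with DMSO at 100% and a positive control at 0%. A significant (2 sigma) signal drop marks a time point as decreased. The authors' rule for a hit is not shown and takes in more than the number of time points.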

Protein sequences, listed by entry. Tags and fused reporters are not part of them. Lines headed by an entry give the natural chain unless they say otherwise; changes in a name come on top.
UniProt P28482, whole entry: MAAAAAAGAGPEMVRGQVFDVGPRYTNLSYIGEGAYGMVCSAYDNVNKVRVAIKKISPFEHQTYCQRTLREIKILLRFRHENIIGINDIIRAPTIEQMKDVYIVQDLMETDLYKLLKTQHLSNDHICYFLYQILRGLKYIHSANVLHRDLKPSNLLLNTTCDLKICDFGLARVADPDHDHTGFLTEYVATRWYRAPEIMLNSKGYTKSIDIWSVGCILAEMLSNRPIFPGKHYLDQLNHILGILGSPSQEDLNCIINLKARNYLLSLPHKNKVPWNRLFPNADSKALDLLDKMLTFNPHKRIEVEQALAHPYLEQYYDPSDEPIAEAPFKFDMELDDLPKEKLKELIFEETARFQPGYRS
UniProt P31152, whole entry: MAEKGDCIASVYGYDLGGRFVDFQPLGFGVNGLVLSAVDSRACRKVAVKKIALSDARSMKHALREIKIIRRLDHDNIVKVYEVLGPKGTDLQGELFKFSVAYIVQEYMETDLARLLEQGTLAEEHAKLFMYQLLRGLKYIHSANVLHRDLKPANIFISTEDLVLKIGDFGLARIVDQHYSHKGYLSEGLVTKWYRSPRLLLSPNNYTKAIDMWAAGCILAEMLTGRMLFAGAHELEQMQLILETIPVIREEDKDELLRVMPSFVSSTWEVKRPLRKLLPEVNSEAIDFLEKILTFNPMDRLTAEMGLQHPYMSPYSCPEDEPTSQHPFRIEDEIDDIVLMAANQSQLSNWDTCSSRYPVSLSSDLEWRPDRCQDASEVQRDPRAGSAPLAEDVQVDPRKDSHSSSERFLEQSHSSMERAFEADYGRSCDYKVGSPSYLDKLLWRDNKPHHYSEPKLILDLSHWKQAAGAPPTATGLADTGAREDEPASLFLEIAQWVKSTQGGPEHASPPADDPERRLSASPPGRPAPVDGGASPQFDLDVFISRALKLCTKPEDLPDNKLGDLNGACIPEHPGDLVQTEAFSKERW
UniProt P49137, whole entry, looked up: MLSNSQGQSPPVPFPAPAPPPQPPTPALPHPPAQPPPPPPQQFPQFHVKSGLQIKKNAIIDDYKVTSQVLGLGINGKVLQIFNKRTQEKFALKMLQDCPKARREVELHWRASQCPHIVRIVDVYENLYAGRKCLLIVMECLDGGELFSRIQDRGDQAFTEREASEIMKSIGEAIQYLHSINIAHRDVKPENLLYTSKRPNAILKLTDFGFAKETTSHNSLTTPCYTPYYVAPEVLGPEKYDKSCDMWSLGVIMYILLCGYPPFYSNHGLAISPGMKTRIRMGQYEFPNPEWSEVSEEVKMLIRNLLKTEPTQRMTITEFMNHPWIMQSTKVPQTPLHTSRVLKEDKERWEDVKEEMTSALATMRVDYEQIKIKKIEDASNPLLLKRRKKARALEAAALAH
UniProt Q9BUB5: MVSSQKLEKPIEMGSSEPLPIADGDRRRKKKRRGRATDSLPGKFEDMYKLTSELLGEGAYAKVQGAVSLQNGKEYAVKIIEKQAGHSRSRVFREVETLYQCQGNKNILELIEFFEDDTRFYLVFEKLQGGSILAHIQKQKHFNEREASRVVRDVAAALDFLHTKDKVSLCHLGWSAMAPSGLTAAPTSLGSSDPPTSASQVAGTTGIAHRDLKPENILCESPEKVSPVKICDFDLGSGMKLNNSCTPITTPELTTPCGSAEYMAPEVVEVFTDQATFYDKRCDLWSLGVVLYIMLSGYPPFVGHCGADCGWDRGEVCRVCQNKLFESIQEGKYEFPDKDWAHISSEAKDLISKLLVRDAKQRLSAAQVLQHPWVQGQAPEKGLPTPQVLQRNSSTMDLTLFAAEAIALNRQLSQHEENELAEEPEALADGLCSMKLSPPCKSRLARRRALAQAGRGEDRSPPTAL
UniProt Q16288, whole entry, looked up: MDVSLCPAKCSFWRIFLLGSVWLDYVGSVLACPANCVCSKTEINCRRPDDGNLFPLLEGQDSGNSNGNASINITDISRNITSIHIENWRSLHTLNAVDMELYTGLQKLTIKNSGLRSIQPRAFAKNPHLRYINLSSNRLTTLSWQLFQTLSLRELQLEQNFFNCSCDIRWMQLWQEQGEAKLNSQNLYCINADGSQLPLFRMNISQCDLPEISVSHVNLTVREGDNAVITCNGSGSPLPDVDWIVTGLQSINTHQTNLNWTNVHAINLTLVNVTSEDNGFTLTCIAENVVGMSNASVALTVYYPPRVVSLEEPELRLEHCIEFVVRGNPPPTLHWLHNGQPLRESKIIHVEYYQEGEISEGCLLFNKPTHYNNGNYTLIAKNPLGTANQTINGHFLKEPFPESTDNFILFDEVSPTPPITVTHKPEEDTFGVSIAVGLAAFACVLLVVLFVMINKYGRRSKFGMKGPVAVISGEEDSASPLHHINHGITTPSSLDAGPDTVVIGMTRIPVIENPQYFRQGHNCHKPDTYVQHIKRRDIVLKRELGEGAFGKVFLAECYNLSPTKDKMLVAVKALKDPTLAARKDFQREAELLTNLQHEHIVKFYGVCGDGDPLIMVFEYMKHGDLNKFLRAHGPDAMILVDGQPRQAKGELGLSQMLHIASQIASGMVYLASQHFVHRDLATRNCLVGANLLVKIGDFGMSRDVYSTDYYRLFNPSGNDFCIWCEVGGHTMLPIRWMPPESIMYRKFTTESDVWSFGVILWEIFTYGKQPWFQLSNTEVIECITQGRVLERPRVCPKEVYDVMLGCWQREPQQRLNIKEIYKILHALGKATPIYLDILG
UniProt O96013: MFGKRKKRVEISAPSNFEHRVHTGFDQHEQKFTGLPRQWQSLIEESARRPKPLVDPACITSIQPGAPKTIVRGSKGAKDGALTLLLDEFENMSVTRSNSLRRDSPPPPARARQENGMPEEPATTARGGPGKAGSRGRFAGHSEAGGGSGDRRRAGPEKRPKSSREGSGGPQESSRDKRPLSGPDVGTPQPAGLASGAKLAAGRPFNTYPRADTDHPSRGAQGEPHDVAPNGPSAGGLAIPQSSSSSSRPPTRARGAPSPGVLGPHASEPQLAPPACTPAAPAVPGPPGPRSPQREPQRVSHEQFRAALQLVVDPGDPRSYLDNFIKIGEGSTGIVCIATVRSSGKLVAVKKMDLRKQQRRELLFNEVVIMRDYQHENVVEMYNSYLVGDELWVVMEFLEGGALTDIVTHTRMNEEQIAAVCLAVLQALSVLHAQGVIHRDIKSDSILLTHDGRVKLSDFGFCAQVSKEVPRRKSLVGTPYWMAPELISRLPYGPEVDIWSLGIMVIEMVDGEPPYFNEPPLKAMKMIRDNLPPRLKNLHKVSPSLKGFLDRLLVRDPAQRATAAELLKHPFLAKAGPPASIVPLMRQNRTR
UniProt Q96KB5: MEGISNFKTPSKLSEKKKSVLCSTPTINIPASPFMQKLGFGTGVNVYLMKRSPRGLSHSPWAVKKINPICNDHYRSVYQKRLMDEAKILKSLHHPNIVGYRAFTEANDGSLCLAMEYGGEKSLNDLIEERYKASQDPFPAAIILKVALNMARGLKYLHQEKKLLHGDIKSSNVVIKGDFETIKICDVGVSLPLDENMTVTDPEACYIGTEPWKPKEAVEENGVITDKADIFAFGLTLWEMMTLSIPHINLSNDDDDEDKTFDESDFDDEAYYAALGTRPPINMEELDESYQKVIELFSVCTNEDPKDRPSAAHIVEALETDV
UniProt P09619, whole entry: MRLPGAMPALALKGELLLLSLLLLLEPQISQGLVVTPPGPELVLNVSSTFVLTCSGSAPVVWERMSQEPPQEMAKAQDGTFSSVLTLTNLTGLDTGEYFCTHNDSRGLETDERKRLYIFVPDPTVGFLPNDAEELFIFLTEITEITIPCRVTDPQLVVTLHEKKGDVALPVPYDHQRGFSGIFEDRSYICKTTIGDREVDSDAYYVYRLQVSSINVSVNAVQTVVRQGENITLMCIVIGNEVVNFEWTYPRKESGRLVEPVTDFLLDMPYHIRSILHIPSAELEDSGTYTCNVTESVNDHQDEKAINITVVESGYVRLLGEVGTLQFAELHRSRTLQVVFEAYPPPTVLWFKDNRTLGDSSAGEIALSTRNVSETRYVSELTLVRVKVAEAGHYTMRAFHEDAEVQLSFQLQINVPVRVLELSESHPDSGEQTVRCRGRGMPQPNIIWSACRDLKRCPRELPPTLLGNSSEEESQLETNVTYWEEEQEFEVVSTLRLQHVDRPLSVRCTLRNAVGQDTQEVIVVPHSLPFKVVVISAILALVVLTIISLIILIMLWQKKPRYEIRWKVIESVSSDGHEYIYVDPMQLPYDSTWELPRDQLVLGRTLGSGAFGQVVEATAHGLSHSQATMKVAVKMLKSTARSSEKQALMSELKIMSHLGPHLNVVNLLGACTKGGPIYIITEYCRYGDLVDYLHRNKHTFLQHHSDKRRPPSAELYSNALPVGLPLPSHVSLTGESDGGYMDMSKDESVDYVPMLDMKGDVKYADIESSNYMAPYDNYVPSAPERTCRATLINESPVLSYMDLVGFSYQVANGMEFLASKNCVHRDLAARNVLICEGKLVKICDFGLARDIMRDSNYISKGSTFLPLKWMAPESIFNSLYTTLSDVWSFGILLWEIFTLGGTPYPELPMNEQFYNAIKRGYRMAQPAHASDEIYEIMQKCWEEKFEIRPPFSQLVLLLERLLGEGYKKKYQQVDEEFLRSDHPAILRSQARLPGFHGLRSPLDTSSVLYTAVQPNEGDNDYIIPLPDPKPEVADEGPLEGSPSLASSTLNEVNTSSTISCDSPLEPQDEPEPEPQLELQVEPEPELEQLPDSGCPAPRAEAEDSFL
UniProt Q15118, whole entry, looked up: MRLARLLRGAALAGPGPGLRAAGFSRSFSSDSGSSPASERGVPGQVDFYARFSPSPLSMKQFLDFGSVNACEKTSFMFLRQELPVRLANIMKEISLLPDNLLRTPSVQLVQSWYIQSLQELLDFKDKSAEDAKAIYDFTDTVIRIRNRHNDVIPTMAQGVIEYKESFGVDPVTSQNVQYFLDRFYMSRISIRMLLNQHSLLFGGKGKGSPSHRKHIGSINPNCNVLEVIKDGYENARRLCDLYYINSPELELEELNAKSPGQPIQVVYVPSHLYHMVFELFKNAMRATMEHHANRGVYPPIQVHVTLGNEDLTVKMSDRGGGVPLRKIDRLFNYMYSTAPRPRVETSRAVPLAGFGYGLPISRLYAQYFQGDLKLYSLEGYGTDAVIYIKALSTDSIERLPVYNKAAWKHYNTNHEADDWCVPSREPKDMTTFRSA
UniProt Q16620, whole entry, looked up: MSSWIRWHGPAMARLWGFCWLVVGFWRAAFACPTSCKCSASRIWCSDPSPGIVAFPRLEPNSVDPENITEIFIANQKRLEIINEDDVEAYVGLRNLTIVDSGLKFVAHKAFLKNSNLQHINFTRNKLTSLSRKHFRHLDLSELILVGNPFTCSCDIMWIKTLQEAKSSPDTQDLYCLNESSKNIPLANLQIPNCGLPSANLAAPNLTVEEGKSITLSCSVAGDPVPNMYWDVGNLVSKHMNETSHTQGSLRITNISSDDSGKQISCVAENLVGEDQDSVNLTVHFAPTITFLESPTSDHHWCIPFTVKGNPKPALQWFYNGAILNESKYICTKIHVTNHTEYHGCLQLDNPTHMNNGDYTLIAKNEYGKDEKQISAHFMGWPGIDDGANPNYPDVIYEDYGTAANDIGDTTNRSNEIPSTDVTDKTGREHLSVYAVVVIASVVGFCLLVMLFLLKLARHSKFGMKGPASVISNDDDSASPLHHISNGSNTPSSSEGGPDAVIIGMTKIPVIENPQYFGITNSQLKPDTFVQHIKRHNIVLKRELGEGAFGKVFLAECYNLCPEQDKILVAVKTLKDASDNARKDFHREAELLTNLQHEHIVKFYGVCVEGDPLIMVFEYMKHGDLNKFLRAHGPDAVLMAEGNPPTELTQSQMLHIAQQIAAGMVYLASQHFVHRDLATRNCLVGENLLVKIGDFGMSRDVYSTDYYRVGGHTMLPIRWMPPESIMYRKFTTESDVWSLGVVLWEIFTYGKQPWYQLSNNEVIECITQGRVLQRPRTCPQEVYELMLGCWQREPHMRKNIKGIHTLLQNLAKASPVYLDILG

Assays:
Experiment in all cases: kinase-Nluc reporter destabilization hit call (1 = scored as downregulated) (binary); higher = compound decreases kinase abundance
Conditions in all cases: K562, 2-18 h
[1] = molecular target: MAPK1 (UniProt P28482)
[2] = molecular target: MAPK4 (UniProt P31152)
[3] = molecular target: MAPKAPK2 (UniProt P49137)
[4] = molecular target: MKNK1 (UniProt Q9BUB5)
[5] = molecular target: NTRK3 (UniProt Q16288)
[6] = molecular target: PAK4 (UniProt O96013)
[7] = molecular target: PBK (UniProt Q96KB5)
[8] = molecular target: PDGFRB (UniProt P09619)
[9] = molecular target: PDK1 (UniProt Q15118)
[10] = molecular target: NTRK2 (UniProt Q16620)

Measured: kinase-Nluc reporter destabilization hit call

CC1(C)C(=O)N([C@H]2CCc3c(O)cccc32)c2nc(Nc3cccc(CN4CCCC4)c3)ncc21
inactive: [1]; 2.5 µM 0 | [2]; 2.5 µM 0 | [3]; 2.5 µM 0 | [4]; 2.5 µM 0 | [5]; 2.5 µM 0 | [6]; 2.5 µM 0 | [7]; 2.5 µM 0 | [8]; 2.5 µM 0 | [9]; 2.5 µM 0

CN1CCN(c2ccc3nc(-c4c(N)c5c(F)cccc5[nH]c4=O)[nH]c3c2)CC1 [Dovitinib]
inactive: [1]; 2.5 µM 0 | [2]; 2.5 µM 0 | [3]; 2.5 µM 0 | [4]; 2.5 µM 0 | [10]; 2.5 µM 0 | [6]; 2.5 µM 0 | [7]; 2.5 µM 0 | [8]; 2.5 µM 0 | [9]; 2.5 µM 0

O=C(O)c1ccc(Nc2ncc3c(n2)-c2ccc(Cl)cc2C(c2c(F)cccc2F)=NC3)cc1
inactive: [1]; 10 µM 0 | [2]; 10 µM 0 | [3]; 10 µM 0 | [4]; 10 µM 0 | [10]; 10 µM 0 | [5]; 10 µM 0 | [6]; 10 µM 0 | [7]; 10 µM 0 | [8]; 10 µM 0 | [9]; 10 µM 0

Cn1cc(/C=C2\C(=O)Nc3cccnc32)c2ccccc21
inactive: [1]; 10 µM 0 | [2]; 10 µM 0 | [4]; 10 µM 0 | [10]; 10 µM 0 | [5]; 10 µM 0 | [6]; 10 µM 0 | [7]; 10 µM 0 | [8]; 10 µM 0

Cc1[nH]c(/C=C2\C(=O)Nc3ccc(F)cc32)c(C)c1C(=O)NC[C@H](O)CN1CCOCC1
inactive: [1]; 2.5 µM 0 | [2]; 2.5 µM 0 | [3]; 2.5 µM 0 | [4]; 2.5 µM 0 | [10]; 2.5 µM 0 | [6]; 2.5 µM 0 | [7]; 2.5 µM 0 | [8]; 2.5 µM 0 | [9]; 2.5 µM 0

N#CC(=Cc1cc(Cl)cc(Cl)c1)c1cccnc1
inactive: [2]; 10 µM 0 | [4]; 10 µM 0 | [5]; 10 µM 0 | [6]; 10 µM 0 | [8]; 10 µM 0

CN1CCN(c2nc(C3=C(c4c[nH]c5ccccc45)C(=O)NC3=O)c3ccccc3n2)CC1 [Sotrastaurin]
inactive: [1]; 2.5 µM 0 | [2]; 2.5 µM 0 | [3]; 2.5 µM 0 | [4]; 2.5 µM 0 | [10]; 2.5 µM 0 | [5]; 2.5 µM 0 | [6]; 2.5 µM 0 | [7]; 2.5 µM 0 | [9]; 2.5 µM 0

O=S(=O)(c1cccc2c(O)nccc12)N1CCCNCC1 [Hydroxyfasudil]
inactive: [2]; 10 µM 0 | [4]; 10 µM 0 | [10]; 10 µM 0 | [5]; 10 µM 0 | [6]; 10 µM 0 | [7]; 10 µM 0 | [8]; 10 µM 0 | [9]; 10 µM 0

NC(=O)c1c(OCc2c(F)cc(Br)cc2F)nsc1NC(=O)NCCCCN1CCCC1
inactive: [1]; 2.5 µM 0 | [2]; 2.5 µM 0 | [3]; 2.5 µM 0 | [4]; 2.5 µM 0 | [10]; 2.5 µM 0 | [5]; 2.5 µM 0 | [6]; 2.5 µM 0 | [7]; 2.5 µM 0 | [9]; 2.5 µM 0

O=C(c1ccc(/C=C/c2n[nH]c3ccccc23)cc1)N1CCNCC1
inactive: [1]; 2.5 µM 0 | [2]; 2.5 µM 0 | [3]; 2.5 µM 0 | [4]; 2.5 µM 0 | [10]; 2.5 µM 0 | [6]; 2.5 µM 0 | [7]; 2.5 µM 0 | [8]; 2.5 µM 0 | [9]; 2.5 µM 0

C[C@@]1(C(=O)Nc2ccc(F)nc2)CCCN1c1nc(Nc2cc(C3CC3)n[nH]2)c2cccn2n1
inactive: [1]; 10 µM 0 | [2]; 10 µM 0 | [3]; 10 µM 0 | [4]; 10 µM 0 | [10]; 10 µM 0 | [6]; 10 µM 0 | [7]; 10 µM 0 | [8]; 10 µM 0 | [9]; 10 µM 0

Cc1cc(Nc2cc(N3CCN(C)CC3)nc(/C=C/c3ccccc3)n2)n[nH]1 [ENMD-2076 (Tartrate)]
inactive: [1]; 2.5 µM 0 | [2]; 2.5 µM 0 | [3]; 2.5 µM 0 | [4]; 2.5 µM 0 | [10]; 2.5 µM 0 | [5]; 2.5 µM 0 | [6]; 2.5 µM 0 | [7]; 2.5 µM 0 | [9]; 2.5 µM 0

O=C1NCCc2[nH]c(-c3ccncc3)cc21
inactive: [1]; 2.5 µM 0 | [2]; 2.5 µM 0 | [4]; 2.5 µM 0 | [10]; 2.5 µM 0 | [5]; 2.5 µM 0 | [6]; 2.5 µM 0 | [7]; 2.5 µM 0 | [9]; 2.5 µM 0

O=C(Nc1cccc(Cl)c1)Nc1ncc(CCNc2ncnc3ccsc23)s1 [SNS-314 (mesylate)]
inactive: [1]; 10 µM 0 | [2]; 10 µM 0 | [3]; 10 µM 0 | [4]; 10 µM 0 | [10]; 10 µM 0 | [5]; 10 µM 0 | [6]; 10 µM 0 | [7]; 10 µM 0 | [9]; 10 µM 0

2 records drawn at random from the list so far, as already listed:
O=C1NCCc2[nH]c(-c3ccncc3)cc21
inactive: [1]; 2.5 µM 0 | [2]; 2.5 µM 0 | [4]; 2.5 µM 0 | [10]; 2.5 µM 0 | [5]; 2.5 µM 0 | [6]; 2.5 µM 0 | [7]; 2.5 µM 0 | [9]; 2.5 µM 0

Cc1cc(Nc2cc(N3CCN(C)CC3)nc(/C=C/c3ccccc3)n2)n[nH]1 [ENMD-2076 (Tartrate)]
inactive: [1]; 2.5 µM 0 | [2]; 2.5 µM 0 | [3]; 2.5 µM 0 | [4]; 2.5 µM 0 | [10]; 2.5 µM 0 | [5]; 2.5 µM 0 | [6]; 2.5 µM 0 | [7]; 2.5 µM 0 | [9]; 2.5 µM 0

Remaining list, next part:

Nc1ncnc2c1c(-c1cnc3[nH]ccc3c1)nn2C1CCCC1
inactive: [1]; 2.5 µM 0 | [2]; 2.5 µM 0 | [3]; 2.5 µM 0 | [4]; 2.5 µM 0 | [10]; 2.5 µM 0 | [5]; 2.5 µM 0 | [6]; 2.5 µM 0 | [7]; 2.5 µM 0 | [9]; 2.5 µM 0

COc1nccc(-c2c(-c3ccc(F)cc3)ncn2C2CCNCC2)n1
inactive: [1]; 10 µM 0 | [2]; 10 µM 0 | [3]; 10 µM 0 | [4]; 10 µM 0 | [10]; 10 µM 0 | [5]; 10 µM 0 | [6]; 10 µM 0 | [7]; 10 µM 0 | [8]; 10 µM 0 | [9]; 10 µM 0

CCc1cc2c(cc1-c1cnn(CC(=O)N(C)C)c1)C(C)(C)c1[nH]c3cc(C#N)ccc3c1C2=O
inactive: [1]; 2.5 µM 0 | [2]; 2.5 µM 0 | [3]; 2.5 µM 0 | [4]; 2.5 µM 0 | [10]; 2.5 µM 0 | [5]; 2.5 µM 0 | [6]; 2.5 µM 0 | [7]; 2.5 µM 0 | [8]; 2.5 µM 0 | [9]; 2.5 µM 0

Cc1cc2ncnn2cc1Nc1ncc2c(n1)n(C1CCOCC1)c(=O)n2C
inactive: [1]; 10 µM 0 | [3]; 10 µM 0 | [4]; 10 µM 0 | [10]; 10 µM 0 | [6]; 10 µM 0 | [7]; 10 µM 0 | [9]; 10 µM 0
